Measurements: patent US10365269B2, “System and methods for detecting ribosome inhibition” (priority 2015, dated 2019)
At least one compound was matched to its structure with a doubt left.

Experiments:
Assay type in all cases: cell-based
[1] = test system: E. coli SH399; test: Cell density (OD600) growth assay of E. coli SH399; conditions: E. coli SH399, A1408G mutation
Experimental: (§1) All cell density and fluorescence measurements were taken in triplicate. 96-well culture plates (1 mL LB per well) with appropriate concentrations of necessary antibiotics and aminoglycoside were inoculated 1:100 from a saturated overnight liquid culture and allowed to grow for 48 hours at 37° C., 200 rpm shaking. For cell density assays, 40 μL of sample was taken from each well, diluted 5-fold, and OD600 was measured by microplate reader. The OD600 of the original culture was calculated by multiplying the reading by the dilution factor (Melançon et al., 2009, Bioorg. Med. Chem. Lett. 19:3845-3847). For cell pellet fluorescence imaging, cells were pelleted by centrifugation (4,000×g, 15 minutes, 4° C.) and the supernatant was decanted completely. […] For fluorescence quantification, cell pellets were resuspended in 1 mL of ¼×Ringer's solution (30.75 mM NaCl, 1.2 mM, KCl, 1.5 mM CaCl2, pH 7.3-7.4), 200 μL of cells from each well were transferred to black 96-well plates, and GFP fluorescence was measured (excitation=395 nm, bandwidth=9 nm; emission=509 nm, bandwidth=15 nm). Fluorescence intensities were calculated as fluorescence/OD600 of the sample minus fluorescence/OD600 of a sample of a non-GFP-expressing E. coli strain parental to the strain being analyzed in order to correct for both cell density and E. coli auto-fluorescence. […]

[2] = test system: O-ribosome; test: O-ribosome inhibition fluorescence assay in E. coli SH399 (pSH6-KF, pRRSH2-A1408G); conditions: E. coli SH399, A1408G 16S rRNA, aminoglycoside 0-500 μM, 48 h
Experimental: as §1

[3] = test system: O-ribosome; test: O-ribosome inhibition fluorescence assay in E. coli SH431 (pSH6-KF, pRRSH2-U1406A)
Experimental: All cell density and fluorescence measurements were taken in triplicate. 96-well culture plates (1 mL LB per well) with appropriate concentrations of necessary antibiotics and aminoglycoside were inoculated 1:100 from a saturated overnight liquid culture and allowed to grow for 48 hours at 37° C., 200 rpm shaking. For cell density assays, 40 μL of sample was taken from each well, diluted 5-fold, and OD600 was measured by microplate reader. The OD600 of the original culture was calculated by multiplying the reading by the dilution factor (Melançon et al., 2009, Bioorg. Med. Chem. Lett. 19:3845-3847). For cell pellet fluorescence imaging, cells were pelleted by centrifugation (4,000×g, 15 minutes, 4° C.) and the supernatant was decanted completely. The underside of the plate was illuminated at 365 nm using an ultraviolet handheld lamp and photgraphed with an 8 megapixel digital camera. For fluorescence quantification, cell pellets were resuspended in 1 mL of ¼×Ringer's solution (30.75 mM NaCl, 1.2 mM, KCl, 1.5 mM CaCl2, pH 7.3-7.4), 200 μL of cells from each well were transferred to black 96-well plates, and GFP fluorescence was measured (excitation=395 nm, bandwidth=9 nm; emission=509 nm, bandwidth=15 nm). Fluorescence intensities were calculated as fluorescence/OD600 of the sample minus fluorescence/OD600 of a sample of a non-GFP-expressing E. coli strain parental to the strain being analyzed in order to correct for both cell density and E. coli auto-fluorescence.
To extend the approach to a system with a different aminoglycoside resistance mutation, prrnC-sacB was replaced with pRRSH2-U1406A (see Section 2.2.2 for vector construction) in E. coli SQ380 (E. coli SH424), which was then transformed with pSH6-KF, resulting in the detection strain E. coli SH431. […] Dose-dependent fluorescence responses by E. coli SH431 were observed when treated with four of these compounds as determined by plate reader fluorescence assays (see section 1.6 for experimental details), including two to which E. coli SH399 was not resistant and therefore could not produce a response. […]

Structure (SMILES): CN[C@@H]1[C@@H](O)[C@@H](O[C@@H]2[C@@H](O)[C@H](O[C@H]3O[C@H]([C@@H](C)O)[C@@H](O)[C@H](O)[C@H]3N)[C@@H](N)C[C@H]2N)OC[C@]1(C)O [G418, geneticin (G418)]
- growth inhibition / resistance of SH399 [1]: significant growth inhibition
- detection of O-ribosome inhibition (fluorescence signal) [2]: failed to give signal
- response at higher concentrations ([3]; E. coli SH431): Dose-dependent decreases in response
- detection of O-ribosome inhibition (fluorescence signal) ([3]; E. coli SH431, U1406A 16S rRNA, aminoglycoside 0-500 μM): able to detect O-ribosome inhibition
- relative potency as ribosome inhibitor (rank among four compounds) ([3]; E. coli SH431, printed order: gentamicins, G418 and hygromycin B, kanamycin A): followed by
